Test results taken from the supplement of paper PMC12819154, “High-throughput peptide-centric local stability assay extends protein–ligand identification to membrane proteins, tissues and bacteria” (Nature Structural & Molecular Biology, 2025).
The other results are listed elsewhere or left out. Small differences around the control level are noise.

Amino acid sequences for entries named in this document (tags omitted). A change or cut given only in a name is not applied to a line headed by its entry.
UniProt O09111: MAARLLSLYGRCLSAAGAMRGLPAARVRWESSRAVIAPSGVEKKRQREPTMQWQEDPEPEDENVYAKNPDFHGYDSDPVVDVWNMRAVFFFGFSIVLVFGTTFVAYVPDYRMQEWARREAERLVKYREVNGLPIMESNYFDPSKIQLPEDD
UniProt P01630, whole entry: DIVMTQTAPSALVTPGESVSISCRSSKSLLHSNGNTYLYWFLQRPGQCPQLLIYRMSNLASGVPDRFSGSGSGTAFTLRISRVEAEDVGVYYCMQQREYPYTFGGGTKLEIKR
UniProt O88447: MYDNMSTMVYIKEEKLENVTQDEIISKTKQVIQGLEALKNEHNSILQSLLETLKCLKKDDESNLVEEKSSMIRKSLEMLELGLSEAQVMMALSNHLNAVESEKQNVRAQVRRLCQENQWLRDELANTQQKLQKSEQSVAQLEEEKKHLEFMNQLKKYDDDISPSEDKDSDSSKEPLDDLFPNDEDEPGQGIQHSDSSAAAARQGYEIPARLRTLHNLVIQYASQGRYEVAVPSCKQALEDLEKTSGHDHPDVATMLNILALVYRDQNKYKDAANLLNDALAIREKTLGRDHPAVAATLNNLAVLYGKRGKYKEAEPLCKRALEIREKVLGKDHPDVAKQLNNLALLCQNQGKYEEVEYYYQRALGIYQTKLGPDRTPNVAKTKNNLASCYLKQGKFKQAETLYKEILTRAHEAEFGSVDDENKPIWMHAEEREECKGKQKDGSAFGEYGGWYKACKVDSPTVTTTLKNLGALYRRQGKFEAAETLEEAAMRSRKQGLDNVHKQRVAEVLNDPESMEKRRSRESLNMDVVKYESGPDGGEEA
UniProt O89017: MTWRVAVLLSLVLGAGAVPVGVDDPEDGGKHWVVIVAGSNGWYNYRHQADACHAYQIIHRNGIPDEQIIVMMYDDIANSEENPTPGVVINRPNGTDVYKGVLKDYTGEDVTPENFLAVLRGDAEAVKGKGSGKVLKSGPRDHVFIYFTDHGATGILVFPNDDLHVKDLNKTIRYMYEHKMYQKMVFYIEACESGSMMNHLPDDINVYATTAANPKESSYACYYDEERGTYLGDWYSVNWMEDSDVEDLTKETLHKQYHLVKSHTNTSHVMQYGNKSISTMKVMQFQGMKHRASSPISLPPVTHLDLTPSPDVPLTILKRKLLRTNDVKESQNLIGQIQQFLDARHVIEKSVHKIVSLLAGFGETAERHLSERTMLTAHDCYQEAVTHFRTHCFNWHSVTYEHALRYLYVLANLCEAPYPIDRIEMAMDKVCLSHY
UniProt O70494: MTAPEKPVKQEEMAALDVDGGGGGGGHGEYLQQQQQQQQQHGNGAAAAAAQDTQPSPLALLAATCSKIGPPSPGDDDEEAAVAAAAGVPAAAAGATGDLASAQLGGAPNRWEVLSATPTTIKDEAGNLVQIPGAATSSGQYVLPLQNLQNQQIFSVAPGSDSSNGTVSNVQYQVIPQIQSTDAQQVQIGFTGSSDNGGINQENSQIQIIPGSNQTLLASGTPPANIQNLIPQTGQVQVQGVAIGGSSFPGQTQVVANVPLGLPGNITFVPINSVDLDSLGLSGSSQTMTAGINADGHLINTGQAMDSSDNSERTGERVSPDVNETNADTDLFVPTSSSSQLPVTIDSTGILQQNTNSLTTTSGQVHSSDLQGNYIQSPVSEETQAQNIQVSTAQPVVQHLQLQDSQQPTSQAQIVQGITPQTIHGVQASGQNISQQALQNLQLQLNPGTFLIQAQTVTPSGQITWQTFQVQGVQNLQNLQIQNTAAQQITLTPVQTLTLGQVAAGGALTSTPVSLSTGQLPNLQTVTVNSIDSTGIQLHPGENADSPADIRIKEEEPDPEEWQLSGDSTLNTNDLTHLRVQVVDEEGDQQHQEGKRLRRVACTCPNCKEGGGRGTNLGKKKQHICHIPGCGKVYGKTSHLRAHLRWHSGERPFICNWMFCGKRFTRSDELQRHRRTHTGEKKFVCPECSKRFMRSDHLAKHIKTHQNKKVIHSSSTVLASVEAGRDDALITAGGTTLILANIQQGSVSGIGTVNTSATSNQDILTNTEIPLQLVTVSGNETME
UniProt O54984: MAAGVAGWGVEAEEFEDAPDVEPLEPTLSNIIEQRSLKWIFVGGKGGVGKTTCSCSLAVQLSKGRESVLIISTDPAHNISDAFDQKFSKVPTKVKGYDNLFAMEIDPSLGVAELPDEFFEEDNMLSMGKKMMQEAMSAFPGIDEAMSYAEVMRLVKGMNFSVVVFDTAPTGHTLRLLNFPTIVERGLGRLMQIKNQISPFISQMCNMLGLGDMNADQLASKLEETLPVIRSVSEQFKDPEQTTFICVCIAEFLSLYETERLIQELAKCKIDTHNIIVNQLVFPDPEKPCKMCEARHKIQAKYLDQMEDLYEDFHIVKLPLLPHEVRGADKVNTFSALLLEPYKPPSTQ
UniProt O35459: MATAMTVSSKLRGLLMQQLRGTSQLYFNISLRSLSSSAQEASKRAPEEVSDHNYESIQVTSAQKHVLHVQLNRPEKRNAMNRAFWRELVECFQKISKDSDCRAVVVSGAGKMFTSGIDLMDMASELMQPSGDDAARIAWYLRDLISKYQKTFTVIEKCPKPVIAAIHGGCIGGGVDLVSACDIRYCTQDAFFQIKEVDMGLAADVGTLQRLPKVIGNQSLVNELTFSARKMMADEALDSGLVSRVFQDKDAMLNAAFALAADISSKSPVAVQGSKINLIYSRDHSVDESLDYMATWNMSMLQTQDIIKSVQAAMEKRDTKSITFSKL
UniProt O88962: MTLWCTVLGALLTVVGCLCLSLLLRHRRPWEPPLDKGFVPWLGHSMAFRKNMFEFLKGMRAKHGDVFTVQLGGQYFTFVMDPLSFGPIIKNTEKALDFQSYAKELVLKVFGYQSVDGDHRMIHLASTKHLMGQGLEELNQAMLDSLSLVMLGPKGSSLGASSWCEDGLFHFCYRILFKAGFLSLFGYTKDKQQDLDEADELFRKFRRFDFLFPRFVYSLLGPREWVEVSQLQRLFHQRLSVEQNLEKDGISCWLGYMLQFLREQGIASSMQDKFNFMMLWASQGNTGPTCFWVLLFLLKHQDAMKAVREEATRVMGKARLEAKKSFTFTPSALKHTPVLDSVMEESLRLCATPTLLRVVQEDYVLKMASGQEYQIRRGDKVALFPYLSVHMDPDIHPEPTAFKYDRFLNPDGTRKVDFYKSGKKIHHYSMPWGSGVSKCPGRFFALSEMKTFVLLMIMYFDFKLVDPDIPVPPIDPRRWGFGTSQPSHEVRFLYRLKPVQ
UniProt P01635, whole entry: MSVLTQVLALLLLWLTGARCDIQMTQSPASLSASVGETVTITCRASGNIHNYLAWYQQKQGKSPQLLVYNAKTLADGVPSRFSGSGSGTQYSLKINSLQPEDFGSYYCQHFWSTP
UniProt O09131: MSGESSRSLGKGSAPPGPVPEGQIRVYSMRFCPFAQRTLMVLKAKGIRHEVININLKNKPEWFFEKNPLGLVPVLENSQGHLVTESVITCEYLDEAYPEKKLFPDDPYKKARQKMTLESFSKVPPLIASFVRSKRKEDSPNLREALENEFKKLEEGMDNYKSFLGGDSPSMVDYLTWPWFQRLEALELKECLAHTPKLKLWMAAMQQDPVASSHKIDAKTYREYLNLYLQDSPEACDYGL
UniProt O08784: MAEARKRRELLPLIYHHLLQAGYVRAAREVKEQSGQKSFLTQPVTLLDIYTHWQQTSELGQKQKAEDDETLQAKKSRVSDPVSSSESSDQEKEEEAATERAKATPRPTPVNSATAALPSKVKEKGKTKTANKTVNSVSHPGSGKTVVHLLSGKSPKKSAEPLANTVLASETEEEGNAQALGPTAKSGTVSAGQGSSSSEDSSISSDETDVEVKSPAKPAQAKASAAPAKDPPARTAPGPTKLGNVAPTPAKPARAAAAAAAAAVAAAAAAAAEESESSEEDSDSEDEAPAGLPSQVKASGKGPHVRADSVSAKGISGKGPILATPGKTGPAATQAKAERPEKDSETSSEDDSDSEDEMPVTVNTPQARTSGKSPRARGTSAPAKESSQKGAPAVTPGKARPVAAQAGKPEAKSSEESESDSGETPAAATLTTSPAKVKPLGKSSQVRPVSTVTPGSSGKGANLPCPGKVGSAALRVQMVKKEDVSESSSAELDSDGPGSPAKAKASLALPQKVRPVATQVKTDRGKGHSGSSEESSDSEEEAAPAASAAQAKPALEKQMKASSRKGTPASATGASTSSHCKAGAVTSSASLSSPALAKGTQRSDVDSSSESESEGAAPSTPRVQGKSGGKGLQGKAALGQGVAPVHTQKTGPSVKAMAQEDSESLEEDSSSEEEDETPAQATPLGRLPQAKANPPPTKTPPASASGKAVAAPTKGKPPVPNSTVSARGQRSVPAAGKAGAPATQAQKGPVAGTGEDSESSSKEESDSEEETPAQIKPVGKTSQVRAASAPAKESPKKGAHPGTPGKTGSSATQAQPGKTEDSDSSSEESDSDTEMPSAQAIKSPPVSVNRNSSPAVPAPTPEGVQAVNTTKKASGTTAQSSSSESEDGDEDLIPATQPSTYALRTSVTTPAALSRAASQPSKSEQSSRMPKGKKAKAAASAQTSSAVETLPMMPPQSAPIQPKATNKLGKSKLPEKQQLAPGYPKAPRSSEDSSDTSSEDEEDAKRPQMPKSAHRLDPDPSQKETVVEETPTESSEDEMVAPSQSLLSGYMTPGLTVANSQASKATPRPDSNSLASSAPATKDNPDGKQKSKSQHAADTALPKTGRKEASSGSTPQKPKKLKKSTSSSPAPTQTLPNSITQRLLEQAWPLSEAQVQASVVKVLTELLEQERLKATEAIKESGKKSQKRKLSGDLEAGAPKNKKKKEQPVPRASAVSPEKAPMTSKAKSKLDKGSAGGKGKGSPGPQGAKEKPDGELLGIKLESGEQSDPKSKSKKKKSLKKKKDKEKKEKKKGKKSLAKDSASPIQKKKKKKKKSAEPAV
UniProt O54890: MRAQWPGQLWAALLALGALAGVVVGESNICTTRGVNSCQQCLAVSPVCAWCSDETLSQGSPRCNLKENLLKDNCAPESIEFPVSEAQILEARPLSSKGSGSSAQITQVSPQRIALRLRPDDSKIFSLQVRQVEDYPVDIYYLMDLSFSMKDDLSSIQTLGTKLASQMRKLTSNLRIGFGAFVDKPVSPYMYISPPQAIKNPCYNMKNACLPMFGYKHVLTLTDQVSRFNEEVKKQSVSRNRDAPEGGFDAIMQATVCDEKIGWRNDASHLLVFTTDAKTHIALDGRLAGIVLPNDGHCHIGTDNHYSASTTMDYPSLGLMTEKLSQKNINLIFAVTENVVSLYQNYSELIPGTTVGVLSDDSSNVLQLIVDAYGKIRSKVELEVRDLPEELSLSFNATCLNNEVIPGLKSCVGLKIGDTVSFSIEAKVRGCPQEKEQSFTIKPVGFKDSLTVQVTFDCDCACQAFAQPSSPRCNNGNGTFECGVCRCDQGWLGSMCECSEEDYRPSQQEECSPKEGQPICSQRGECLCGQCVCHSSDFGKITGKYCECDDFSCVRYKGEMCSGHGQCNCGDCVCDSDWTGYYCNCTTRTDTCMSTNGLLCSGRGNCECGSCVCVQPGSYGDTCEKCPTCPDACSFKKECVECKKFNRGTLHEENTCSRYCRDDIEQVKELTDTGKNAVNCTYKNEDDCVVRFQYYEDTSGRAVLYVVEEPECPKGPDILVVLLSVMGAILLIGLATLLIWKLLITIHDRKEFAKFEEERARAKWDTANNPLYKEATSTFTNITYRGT
UniProt O35551: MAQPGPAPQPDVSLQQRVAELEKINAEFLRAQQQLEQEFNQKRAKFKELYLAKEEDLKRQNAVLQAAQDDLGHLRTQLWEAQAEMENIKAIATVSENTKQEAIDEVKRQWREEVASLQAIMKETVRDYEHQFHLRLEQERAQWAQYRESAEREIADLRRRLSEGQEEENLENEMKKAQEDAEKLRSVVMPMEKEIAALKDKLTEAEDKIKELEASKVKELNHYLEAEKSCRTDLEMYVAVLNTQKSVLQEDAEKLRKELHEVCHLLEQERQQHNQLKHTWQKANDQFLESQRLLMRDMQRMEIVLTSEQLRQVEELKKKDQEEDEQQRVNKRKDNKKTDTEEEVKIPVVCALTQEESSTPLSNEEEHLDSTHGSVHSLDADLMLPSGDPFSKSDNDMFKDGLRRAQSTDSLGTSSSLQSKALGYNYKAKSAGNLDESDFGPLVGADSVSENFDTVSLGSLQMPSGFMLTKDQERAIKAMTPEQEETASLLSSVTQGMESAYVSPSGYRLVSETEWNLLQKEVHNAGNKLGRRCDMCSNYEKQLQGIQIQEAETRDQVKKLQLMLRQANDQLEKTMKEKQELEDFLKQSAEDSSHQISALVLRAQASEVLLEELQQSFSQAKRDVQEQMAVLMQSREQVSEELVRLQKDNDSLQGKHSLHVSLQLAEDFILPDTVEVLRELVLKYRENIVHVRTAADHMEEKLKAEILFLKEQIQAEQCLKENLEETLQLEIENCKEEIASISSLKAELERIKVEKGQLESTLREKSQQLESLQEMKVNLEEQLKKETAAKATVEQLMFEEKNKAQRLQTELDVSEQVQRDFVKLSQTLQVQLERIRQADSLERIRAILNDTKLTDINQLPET

compound: CN[C@@H]1C[C@H]2O[C@@](C)([C@@H]1OC)n1c3ccccc3c3c4c(c5c6ccccc6n2c5c31)C(=O)NC4 [staurosporine]; assay: log2 fold change of pooled soluble protein (PISA), ligand vs vehicle (log2 ratio); higher = more thermally stabilized; settings: ligand concentration: 20 uM; assay format: PISA pool 52.9/55.5/58.6 C

Target	log2 fold change of pooled soluble protein
UniProt O09111	-0.247
UniProt O35516	0.0663
UniProt O08677	-0.102
UniProt O08553	-0.0244
UniProt O89103	0.148
UniProt P01630	-0.125
UniProt O88447	0.373
UniProt O35071	-0.144
UniProt O88643	-0.283
UniProt P00920	-0.0257
UniProt O89017	-0.0054
UniProt O70494	0.168
UniProt O08532	-0.0489
UniProt O54984	-0.155
UniProt O89020	-0.0801
UniProt O88522	-0.0325
UniProt O09164	0.0161
UniProt O35459	-0.148

Reformatted with each value named: part of the list above.
UniProt O89103
  log2 fold change of pooled soluble protein: 0.148
UniProt O70494
  log2 fold change of pooled soluble protein: 0.168

Further results follow:

Target	log2 fold change of pooled soluble protein
UniProt O88962	-0.139
UniProt O35864	-0.0974
UniProt P01635	0.0605
UniProt O55091	0.0728
UniProt O70589	0.0919
UniProt O35488	0.0301
UniProt O09131	0.0615
UniProt O08784	0.0288
UniProt O55137	0.338
UniProt O88735	-0.136
Q8BR92 (UniProt O54931)	0.0793
UniProt O54734	-0.148
UniProt O54901	0.3
UniProt O08691	-0.148
UniProt O88532	0.0323
UniProt O70318	-0.0659
UniProt O54890	0.102
UniProt O35551	0.062
